Data reported in PubChem BioAssay AID2732 (Emory University Molecular Libraries Screening Center, 2010).
Only a part is listed here, and it is no random draw. Calls of active or inactive are those of the source.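 The calls were made as follows: active = compounds that reduced the stress-induced luciferase reporter signal by more than about 70% of percent inhibition (limit read from the data); inactive = the rest.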

Experiment: blockers of ER-stress CHOP reporter expression – cell-based, unfolded protein response, luciferase reporter, primary screen (AID 2732);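 also: 0% = tunicamycin plus vehicle and 100% = wells without tunicamycin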
Settings: CHO-K1 CHOP-promoter luciferase, tunicamycin-induced, 15-18 h; at 10 µM; hits give high values
In the case of `Nc1nonc1-n1nnc(C(=O)N/N=C/c2ccc(OCc3ccc(F)cc3)cc2)c1COc1ccccc1`, the inhibition is reported as active: 99.9%.
With `COc1ccc2[nH]c3c(C)c4ccncc4c(C)c3c2c1` the inhibition was active: 103%.
In the case of `COc1cc(CN2CCc3ccccc3C2)ccc1O`, the inhibition is reported as active: 107%.
With `CCc1ccc(Oc2coc3cc(OCC(=O)Nc4cc(C)ccc4C)ccc3c2=O)cc1` the inhibition was active: 99%.
In the case of `CC(C)(C)C1CCC2(CC1)C(C#N)=C(SCC(=O)Nc1ccccc1)NC(=O)C2C#N` (stereo not given), the inhibition is reported as active: 105%.
